Measurements published in the supplement of paper PMC10849652.
The list shows a part of the results.

By UniProt entry, the sequences of proteins in these tests, tags left out. Where a name states a change or a piece, a line headed by the entry shows the natural chain unless it says otherwise.
UniProt Q8N6M0: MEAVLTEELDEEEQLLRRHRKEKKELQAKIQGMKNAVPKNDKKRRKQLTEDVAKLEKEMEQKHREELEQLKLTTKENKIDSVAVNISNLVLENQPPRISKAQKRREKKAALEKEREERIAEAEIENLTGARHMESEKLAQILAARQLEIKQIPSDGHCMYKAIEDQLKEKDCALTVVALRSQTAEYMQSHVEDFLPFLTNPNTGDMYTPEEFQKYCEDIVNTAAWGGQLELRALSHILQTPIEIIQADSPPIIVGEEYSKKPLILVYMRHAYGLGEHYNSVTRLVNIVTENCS
UniProt O96013: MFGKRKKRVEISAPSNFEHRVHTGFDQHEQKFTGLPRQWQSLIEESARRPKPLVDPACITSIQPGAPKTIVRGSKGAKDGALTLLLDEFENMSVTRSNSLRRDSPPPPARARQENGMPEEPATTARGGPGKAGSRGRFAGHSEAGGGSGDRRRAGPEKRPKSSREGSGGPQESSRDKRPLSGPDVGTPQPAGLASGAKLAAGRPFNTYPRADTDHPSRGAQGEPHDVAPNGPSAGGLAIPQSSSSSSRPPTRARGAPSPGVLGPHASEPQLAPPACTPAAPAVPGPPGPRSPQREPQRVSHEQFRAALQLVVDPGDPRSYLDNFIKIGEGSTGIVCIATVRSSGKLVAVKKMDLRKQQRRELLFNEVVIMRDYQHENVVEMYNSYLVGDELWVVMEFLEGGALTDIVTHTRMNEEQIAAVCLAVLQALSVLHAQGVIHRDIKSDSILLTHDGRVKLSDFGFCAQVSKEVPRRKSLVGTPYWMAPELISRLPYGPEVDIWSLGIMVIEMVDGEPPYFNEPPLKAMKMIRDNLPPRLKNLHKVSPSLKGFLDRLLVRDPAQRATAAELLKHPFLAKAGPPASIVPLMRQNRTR
UniProt Q9H1P3, whole entry, looked up: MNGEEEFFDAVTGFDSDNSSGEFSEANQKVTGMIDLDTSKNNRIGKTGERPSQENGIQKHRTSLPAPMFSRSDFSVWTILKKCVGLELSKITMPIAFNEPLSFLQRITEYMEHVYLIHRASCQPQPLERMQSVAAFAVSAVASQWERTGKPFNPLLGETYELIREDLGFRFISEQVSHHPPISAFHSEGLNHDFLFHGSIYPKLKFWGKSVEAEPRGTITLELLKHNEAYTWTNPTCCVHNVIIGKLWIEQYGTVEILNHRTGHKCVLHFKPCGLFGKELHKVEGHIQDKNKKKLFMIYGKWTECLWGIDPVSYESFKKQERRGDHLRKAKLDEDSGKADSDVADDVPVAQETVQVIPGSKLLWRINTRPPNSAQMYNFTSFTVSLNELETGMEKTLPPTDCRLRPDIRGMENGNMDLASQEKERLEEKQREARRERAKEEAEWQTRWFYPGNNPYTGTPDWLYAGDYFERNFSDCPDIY
UniProt O43252: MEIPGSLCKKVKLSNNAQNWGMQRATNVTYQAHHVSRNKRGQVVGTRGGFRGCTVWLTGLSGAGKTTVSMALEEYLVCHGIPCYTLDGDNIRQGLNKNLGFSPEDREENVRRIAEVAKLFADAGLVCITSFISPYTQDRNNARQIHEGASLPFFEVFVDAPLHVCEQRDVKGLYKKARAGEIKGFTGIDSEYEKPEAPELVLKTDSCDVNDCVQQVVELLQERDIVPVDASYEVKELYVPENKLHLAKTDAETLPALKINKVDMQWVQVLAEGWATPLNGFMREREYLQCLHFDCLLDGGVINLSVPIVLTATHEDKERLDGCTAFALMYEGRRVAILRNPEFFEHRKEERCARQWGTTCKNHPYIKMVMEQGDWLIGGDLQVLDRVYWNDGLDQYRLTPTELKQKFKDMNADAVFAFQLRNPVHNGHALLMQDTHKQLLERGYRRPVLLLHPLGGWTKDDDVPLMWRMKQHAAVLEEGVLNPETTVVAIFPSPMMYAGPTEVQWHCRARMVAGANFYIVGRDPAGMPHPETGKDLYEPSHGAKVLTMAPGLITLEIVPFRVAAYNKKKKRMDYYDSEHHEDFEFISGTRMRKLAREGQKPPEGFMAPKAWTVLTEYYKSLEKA
UniProt Q9H4L5: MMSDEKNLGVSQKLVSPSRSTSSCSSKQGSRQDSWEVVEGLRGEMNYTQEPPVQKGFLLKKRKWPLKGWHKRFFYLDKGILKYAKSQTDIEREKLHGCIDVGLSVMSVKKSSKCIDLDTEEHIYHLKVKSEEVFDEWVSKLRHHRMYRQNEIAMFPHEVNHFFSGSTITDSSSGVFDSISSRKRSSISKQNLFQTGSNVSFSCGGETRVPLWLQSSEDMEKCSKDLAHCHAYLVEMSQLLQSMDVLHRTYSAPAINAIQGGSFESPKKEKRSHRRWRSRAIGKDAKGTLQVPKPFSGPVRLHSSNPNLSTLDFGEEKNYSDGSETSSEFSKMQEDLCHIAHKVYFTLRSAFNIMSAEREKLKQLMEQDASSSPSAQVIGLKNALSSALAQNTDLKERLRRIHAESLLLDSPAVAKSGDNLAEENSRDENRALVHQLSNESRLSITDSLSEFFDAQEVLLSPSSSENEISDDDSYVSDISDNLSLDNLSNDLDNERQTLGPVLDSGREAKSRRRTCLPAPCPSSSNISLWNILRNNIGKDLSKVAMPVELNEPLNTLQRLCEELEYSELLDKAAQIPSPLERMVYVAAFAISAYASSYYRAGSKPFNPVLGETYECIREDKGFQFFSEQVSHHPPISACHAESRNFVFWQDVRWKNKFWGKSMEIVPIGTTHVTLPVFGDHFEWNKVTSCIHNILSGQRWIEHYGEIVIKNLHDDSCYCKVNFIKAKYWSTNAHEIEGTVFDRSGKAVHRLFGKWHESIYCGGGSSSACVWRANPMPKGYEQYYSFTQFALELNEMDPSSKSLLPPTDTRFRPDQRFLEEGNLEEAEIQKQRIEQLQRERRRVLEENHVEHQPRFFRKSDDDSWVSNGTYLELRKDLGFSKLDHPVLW
UniProt O75147: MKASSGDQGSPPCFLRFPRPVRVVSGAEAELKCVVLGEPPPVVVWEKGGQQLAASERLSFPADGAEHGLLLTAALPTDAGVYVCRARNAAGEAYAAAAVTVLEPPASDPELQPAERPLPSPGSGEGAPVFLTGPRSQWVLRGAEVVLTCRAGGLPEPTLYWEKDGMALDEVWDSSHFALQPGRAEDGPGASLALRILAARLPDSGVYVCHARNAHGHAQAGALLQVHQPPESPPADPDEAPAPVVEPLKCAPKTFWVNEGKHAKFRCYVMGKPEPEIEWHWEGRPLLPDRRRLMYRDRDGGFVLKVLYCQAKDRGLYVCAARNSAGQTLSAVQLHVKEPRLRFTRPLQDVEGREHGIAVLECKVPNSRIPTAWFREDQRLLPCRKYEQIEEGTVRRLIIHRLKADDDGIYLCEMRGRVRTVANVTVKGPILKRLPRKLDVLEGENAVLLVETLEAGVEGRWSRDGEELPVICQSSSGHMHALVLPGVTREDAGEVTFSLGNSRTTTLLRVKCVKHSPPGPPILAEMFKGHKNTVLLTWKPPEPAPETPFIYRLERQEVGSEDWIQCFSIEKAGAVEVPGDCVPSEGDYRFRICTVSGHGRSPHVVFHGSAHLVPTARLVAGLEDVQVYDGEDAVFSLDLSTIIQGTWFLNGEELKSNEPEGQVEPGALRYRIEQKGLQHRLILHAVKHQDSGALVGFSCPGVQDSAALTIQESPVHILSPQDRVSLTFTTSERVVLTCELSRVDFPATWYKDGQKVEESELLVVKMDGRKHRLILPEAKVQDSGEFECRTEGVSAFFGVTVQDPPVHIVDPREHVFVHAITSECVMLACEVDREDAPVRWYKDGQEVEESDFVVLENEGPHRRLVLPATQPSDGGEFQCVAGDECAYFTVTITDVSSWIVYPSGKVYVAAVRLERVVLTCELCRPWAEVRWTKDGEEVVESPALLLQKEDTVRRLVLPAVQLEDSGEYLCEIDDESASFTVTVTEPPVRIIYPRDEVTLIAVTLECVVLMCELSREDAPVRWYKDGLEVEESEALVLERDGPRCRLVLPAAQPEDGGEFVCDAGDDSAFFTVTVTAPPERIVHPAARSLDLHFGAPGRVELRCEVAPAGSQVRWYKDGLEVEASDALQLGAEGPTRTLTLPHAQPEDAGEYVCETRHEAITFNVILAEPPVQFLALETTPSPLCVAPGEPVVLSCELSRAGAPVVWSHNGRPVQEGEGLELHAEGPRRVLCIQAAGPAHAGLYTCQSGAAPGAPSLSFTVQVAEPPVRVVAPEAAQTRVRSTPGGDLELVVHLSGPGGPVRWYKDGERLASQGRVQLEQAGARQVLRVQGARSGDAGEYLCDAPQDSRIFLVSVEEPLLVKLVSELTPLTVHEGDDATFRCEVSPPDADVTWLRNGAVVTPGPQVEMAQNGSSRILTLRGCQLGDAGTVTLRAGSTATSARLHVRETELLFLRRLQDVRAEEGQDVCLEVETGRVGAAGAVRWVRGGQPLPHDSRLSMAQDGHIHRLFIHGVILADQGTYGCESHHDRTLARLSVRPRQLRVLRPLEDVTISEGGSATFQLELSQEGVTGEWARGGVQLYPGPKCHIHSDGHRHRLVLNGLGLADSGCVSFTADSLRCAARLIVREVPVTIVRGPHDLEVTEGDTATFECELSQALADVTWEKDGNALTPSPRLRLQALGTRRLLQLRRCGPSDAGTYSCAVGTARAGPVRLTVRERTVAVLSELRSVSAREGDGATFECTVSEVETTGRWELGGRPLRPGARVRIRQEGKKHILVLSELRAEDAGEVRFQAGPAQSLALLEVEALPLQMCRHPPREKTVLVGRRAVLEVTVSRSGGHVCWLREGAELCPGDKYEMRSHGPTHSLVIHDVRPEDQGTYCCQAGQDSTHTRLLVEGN
UniProt O15504: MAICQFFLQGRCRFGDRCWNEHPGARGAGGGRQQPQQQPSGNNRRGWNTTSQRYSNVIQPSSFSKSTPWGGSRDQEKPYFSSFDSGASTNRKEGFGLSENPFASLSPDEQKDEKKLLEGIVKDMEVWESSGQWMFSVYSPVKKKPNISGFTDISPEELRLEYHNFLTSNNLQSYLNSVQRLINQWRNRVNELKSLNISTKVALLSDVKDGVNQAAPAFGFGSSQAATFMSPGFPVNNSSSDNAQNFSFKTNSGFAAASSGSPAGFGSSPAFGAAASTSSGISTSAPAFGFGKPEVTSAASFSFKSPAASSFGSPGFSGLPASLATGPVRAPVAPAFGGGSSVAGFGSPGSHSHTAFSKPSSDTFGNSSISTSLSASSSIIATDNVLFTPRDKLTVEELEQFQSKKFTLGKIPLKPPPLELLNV
UniProt Q8N573: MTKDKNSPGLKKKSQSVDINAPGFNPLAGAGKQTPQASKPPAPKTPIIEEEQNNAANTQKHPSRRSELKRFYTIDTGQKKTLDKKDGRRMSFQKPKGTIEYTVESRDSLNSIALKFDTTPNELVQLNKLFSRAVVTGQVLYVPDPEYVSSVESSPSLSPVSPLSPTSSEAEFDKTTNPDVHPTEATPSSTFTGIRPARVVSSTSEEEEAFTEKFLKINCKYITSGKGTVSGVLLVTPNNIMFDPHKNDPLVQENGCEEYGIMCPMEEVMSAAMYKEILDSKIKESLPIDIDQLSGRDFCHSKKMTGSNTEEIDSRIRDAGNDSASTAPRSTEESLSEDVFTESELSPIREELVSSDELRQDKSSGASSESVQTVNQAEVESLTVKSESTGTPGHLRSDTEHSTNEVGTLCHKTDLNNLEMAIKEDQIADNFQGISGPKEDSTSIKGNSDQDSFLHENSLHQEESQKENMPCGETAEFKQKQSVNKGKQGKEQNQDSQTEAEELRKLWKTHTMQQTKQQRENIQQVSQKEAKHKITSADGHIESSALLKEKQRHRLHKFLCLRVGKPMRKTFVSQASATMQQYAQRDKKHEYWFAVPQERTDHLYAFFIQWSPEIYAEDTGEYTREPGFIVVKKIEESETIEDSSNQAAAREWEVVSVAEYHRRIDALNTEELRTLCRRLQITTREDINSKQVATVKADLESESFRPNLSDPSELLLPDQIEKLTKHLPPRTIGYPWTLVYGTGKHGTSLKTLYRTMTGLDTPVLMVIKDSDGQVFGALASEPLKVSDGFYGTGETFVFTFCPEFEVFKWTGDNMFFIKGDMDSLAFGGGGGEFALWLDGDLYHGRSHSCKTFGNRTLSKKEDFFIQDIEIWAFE
UniProt Q9NWU1, whole entry, looked up: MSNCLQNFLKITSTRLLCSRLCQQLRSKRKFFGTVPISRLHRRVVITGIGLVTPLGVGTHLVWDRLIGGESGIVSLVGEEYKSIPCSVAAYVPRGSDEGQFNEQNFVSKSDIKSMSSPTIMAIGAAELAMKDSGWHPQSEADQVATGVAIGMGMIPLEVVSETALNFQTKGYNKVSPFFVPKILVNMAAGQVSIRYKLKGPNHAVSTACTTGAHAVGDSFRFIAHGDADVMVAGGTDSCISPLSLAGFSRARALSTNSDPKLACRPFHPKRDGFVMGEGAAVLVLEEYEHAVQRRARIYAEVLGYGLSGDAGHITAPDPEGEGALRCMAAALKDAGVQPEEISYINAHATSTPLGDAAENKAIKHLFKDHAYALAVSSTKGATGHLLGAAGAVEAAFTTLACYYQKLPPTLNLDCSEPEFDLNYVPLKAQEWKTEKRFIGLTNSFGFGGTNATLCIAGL

How the values were obtained:
Assay in all cases: log2 fold change, soluble protein after heating vs DMSO (PISA); higher = thermal stabilisation; K562 lysate, 10 uM; active = over 0.2 and 3.5 SD of the protein, either way, in both replicates (recomputed)
lapatinib = compound: CS(=O)(=O)CCNCc1ccc(-c2ccc3ncnc(Nc4ccc(OCc5cccc(F)c5)c(Cl)c4)c3c2)o1 [lapatinib]
In short: (§1)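 Dounce homogenisation of K562 pellets in PBS pH 7.4 with 1 mM MgCl2 produced a crude extract, used at 1 mg/mL protein. Exposure to 10 μM compound lasted 30 min, and aliquots were then heated for 3 min across 48°C-58°C, pooled and brought to 0.5% NP-40 at 4°C. The supernatant after 21,000xg for 90 min was quantified by TMTpro 16plex LC-MS/MS with channel sums equalised. Duplicate values are given as log-two fold change in thermal stability relative to solvent controls.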

pictilisib = compound: CS(=O)(=O)N1CCN(Cc2cc3nc(-c4cccc5[nH]ncc45)nc(N4CCOCC4)c3s2)CC1 [pictilisib]
In short: as §1

crizotinib = compound: C[C@@H](Oc1cc(-c2cnn(C3CCNCC3)c2)cnc1N)c1c(Cl)ccc(F)c1Cl [crizotinib]
In short: as §1

[1] = compound: C[C@H](C1=CC=C(C=C1)C(=O)NC2=C3C=CNC3=NC=C2)N
In short: as §1

duvelisib = compound: C[C@H](Nc1ncnc2nc[nH]c12)c1cc2cccc(Cl)c2c(=O)n1-c1ccccc1 [duvelisib]
In short: as §1

gandotinib = compound: Cc1cc(Nc2cc(CN3CCOCC3)c3nc(C)c(Cc4ccc(Cl)cc4F)n3n2)n[nH]1 [gandotinib]
In short: as §1

tozasertib = compound: Cc1cc(Nc2cc(N3CCN(C)CC3)nc(Sc3ccc(NC(=O)C4CC4)cc3)n2)n[nH]1 [tozasertib]
In short: as §1

doramapimod = compound: Cc1ccc(-n2nc(C(C)(C)C)cc2NC(=O)Nc2ccc(OCCN3CCOCC3)c3ccccc23)cc1 [doramapimod]
In short: as §1

bafetinib = compound: Cc1ccc(NC(=O)c2ccc(CN3CC[C@H](N(C)C)C3)c(C(F)(F)F)c2)cc1Nc1nccc(-c2cncnc2)n1 [bafetinib]
In short: as §1

[2] = compound: Cc1cccc(CC(=O)N2CCc3c2ccc(-c2cn(C)c4ncnc(N)c24)c3F)n1
In short: as §1

nilotinib = compound: Cc1cn(-c2cc(NC(=O)c3ccc(C)c(Nc4nccc(-c5cccnc5)n4)c3)cc(C(F)(F)F)c2)cn1 [nilotinib]
In short: as §1

[3] = compound: Cc1nc(Nc2n[nH]c3c2CN(C(=O)N[C@H](CN(C)C)c2ccccc2)C3(C)C)c2sccc2n1
In short: as §1

dasatinib = compound: Cc1nc(Nc2ncc(C(=O)Nc3c(C)cccc3Cl)s2)cc(N2CCN(CCO)CC2)n1 [dasatinib]
In short: as §1

[4] = compound: Cc1ncc(-c2ccnc(Nc3ccc(S(C)(=O)=O)cc3)n2)n1C(C)C
In short: as §1

[5] = compound: Cn1cc(-c2ccc3c(c2)CCN3C(=O)Cc2cccc(C(F)(F)F)c2)c2c(N)ncnc21
In short: as §1

quisinostat = compound: Cn1cc(CNCC2CCN(c3ncc(C(=O)NO)cn3)CC2)c2ccccc21 [quisinostat]
In short: as §1

tipifarnib = compound: Cn1cncc1[C@@](N)(c1ccc(Cl)cc1)c1ccc2c(c1)c(-c1cccc(Cl)c1)cc(=O)n2C [tipifarnib]
In short: as §1

[6] = compound: NC(=O)Nc1cc(-c2cccc(F)c2)sc1C(=O)N[C@H]1CCCNC1
In short: as §1

[7] = compound: NC(=O)c1cnc(N[C@@H]2CCCC[C@@H]2N)nc1Nc1cccc(-n2nccn2)c1
In short: as §1

[8] = compound: NC1(c2ccc(-c3nc4ccn5c(=O)[nH]nc5c4cc3-c3ccccc3)cc2)CCC1
In short: as §1

Target | log2 fold change (lapatinib) | log2 fold change (pictilisib) | log2 fold change (crizotinib) | log2 fold change [1] | log2 fold change (duvelisib) | log2 fold change (gandotinib) | log2 fold change (tozasertib) | log2 fold change (doramapimod) | log2 fold change (bafetinib) | log2 fold change [2] | log2 fold change (nilotinib) | log2 fold change [3] | log2 fold change (dasatinib) | log2 fold change [4] | log2 fold change [5] | log2 fold change (quisinostat) | log2 fold change (tipifarnib) | log2 fold change [6] | log2 fold change [7] | log2 fold change [8]
OGA (UniProt O60502) | inactive: -0.012 | inactive: -0.019 | inactive: -0.012 | inactive: 0.026 | inactive: -0.001 | inactive: -0.054 | inactive: -0.007 | inactive: -0.004 | inactive: 0.002 | inactive: -0.018 | inactive: 0.007 | inactive: 0.006 | inactive: 0 | inactive: -0.006 | inactive: 0.023 | inactive: -0.006 | inactive: -0.003 | inactive: 0.003 | inactive: 0.008 | inactive: 0.002
OTUD6B (UniProt Q8N6M0) | inactive: 0.007 | inactive: -0.045 | inactive: 0.025 | inactive: 0.113 | inactive: -0.026 | inactive: -0.106 | inactive: 0.101 | inactive: -0.015 | inactive: -0.026 | inactive: -0.07 | inactive: -0.041 | inactive: -0.039 | inactive: 0.002 | inactive: 0.004 | inactive: 0.025 | inactive: -0.001 | inactive: 0.025 | inactive: 0.031 | inactive: -0.011 | inactive: 0.179
OSBPL9 isoform 2 (UniProt Q96SU4) | inactive: 0 | inactive: -0.022 | inactive: -0.015 | inactive: -0.039 | inactive: 0.001 | inactive: -0.088 | inactive: -0.122 | inactive: -0.026 | inactive: -0.044 | inactive: 0.02 | inactive: -0.032 | inactive: 0.022 | inactive: -0.044 | inactive: -0.023 | inactive: -0.002 | inactive: -0.041 | inactive: 0.013 | inactive: 0.068 | inactive: 0.028 | inactive: 0.054
OGFOD3 (UniProt Q6PK18) | inactive: -0.007 | inactive: 0.018 | inactive: 0.006 | inactive: 0.021 | inactive: 0.047 | inactive: 0.03 | inactive: 0.014 | inactive: 0.109 | inactive: 0.014 | inactive: -0.006 | inactive: -0.031 | inactive: -0.114 | inactive: -0.041 | inactive: -0.009 | inactive: 0.118 | inactive: 0.008 | inactive: -0.014 | inactive: 0.072 | inactive: 0.011 | inactive: 0.096
PAK4 (UniProt O96013) | inactive: -0.147 | inactive: 0.139 | inactive: 0.037 | inactive: 0.163 | inactive: 0.05 | active: 0.709 | inactive: 0.18 | inactive: -0.236 | inactive: -0.011 | inactive: -0.12 | inactive: -0.015 | active: 0.71 | inactive: 0.141 | inactive: 0.264 | inactive: -0.081 | inactive: -0.269 | inactive: -0.016 | active: 0.9 | inactive: 0.473 | inactive: 0.257
OSBPL2 (UniProt Q9H1P3) | inactive: 0.125 | inactive: -0.019 | inactive: -0.029 | inactive: -0.078 | inactive: -0.022 | inactive: -0.065 | inactive: 0.002 | inactive: -0.023 | inactive: -0.022 | inactive: 0.142 | inactive: -0.165 | inactive: 0.018 | inactive: -0.065 | inactive: 0.042 | inactive: -0.064 | inactive: 0.028 | inactive: 0.019 | inactive: 0.039 | inactive: -0.016 | inactive: -0.034
PAPSS1 (UniProt O43252) | inactive: 0.008 | inactive: 0.002 | inactive: 0 | inactive: -0.013 | inactive: -0.003 | inactive: 0.008 | inactive: 0.058 | inactive: -0.002 | inactive: 0.008 | inactive: 0.048 | inactive: 0.007 | inactive: -0.022 | inactive: -0.008 | inactive: -0.012 | inactive: 0 | inactive: 0.017 | inactive: 0.017 | inactive: 0.001 | inactive: 0.003 | inactive: -0.003
OSBPL3 isoform 2 (UniProt Q9H4L5) | inactive: 0.073 | inactive: -0.039 | inactive: 0.014 | inactive: -0.045 | inactive: 0.03 | inactive: -0.052 | inactive: -0.005 | inactive: 0.107 | inactive: 0.269 | inactive: 0.035 | inactive: 0.085 | inactive: -0.048 | inactive: -0.191 | inactive: -0.026 | inactive: 0.024 | inactive: -0.051 | inactive: -0.02 | inactive: 0.003 | inactive: 0.017 | inactive: -0.151
OBSL1 (UniProt O75147) | inactive: -0.037 | inactive: -0.005 | inactive: 0.045 | inactive: -0.038 | inactive: 0.03 | inactive: 0.017 | inactive: 0.015 | inactive: 0.098 | inactive: -0.003 | inactive: 0.036 | inactive: -0.026 | inactive: -0.045 | inactive: -0.01 | inactive: -0.057 | inactive: 0.02 | inactive: -0.053 | inactive: -0.04 | inactive: 0.108 | inactive: 0.048 | inactive: -0.038
ORC3 isoform 2 (UniProt Q9UBD5) | inactive: -0.014 | inactive: -0.011 | inactive: -0.119 | inactive: -0.008 | inactive: -0.025 | inactive: -0.097 | inactive: -0.024 | inactive: -0.009 | inactive: -0.046 | inactive: 0.001 | inactive: -0.014 | inactive: 0 | inactive: -0.084 | inactive: -0.014 | inactive: -0.012 | inactive: -0.038 | inactive: -0.014 | inactive: 0.099 | inactive: 0.027 | inactive: -0.079
NUP42 (UniProt O15504) | inactive: 0 | inactive: -0.012 | inactive: -0.034 | inactive: 0.105 | inactive: -0.033 | inactive: -0.064 | inactive: 0.021 | inactive: 0.03 | inactive: -0.052 | inactive: -0.052 | inactive: -0.031 | inactive: -0.027 | inactive: 0 | inactive: -0.02 | inactive: 0.031 | inactive: -0.056 | inactive: 0.021 | inactive: 0.021 | inactive: 0.002 | inactive: 0.012
OXR1 (UniProt Q8N573) | inactive: 0.018 | inactive: 0.016 | inactive: 0.006 | inactive: -0.016 | inactive: -0.014 | inactive: 0.115 | inactive: -0.049 | inactive: 0.068 | inactive: -0.014 | inactive: -0.005 | inactive: 0.006 | inactive: 0.03 | inactive: 0.051 | inactive: 0.027 | inactive: 0.01 | inactive: -0.051 | inactive: -0.02 | inactive: 0 | inactive: -0.003 | inactive: 0.013
PAF1 (UniProt Q8N7H5) | inactive: -0.023 | inactive: -0.038 | inactive: -0.012 | inactive: -0.014 | inactive: 0.03 | inactive: 0.011 | inactive: 0.004 | inactive: 0.004 | inactive: -0.02 | inactive: 0.018 | inactive: -0.025 | inactive: 0.035 | inactive: -0.016 | inactive: 0.027 | inactive: 0.027 | inactive: -0.011 | inactive: -0.047 | inactive: 0.035 | inactive: 0.01 | inactive: 0.012
OXSM (UniProt Q9NWU1) | inactive: -0.04 | inactive: -0.039 | inactive: 0.013 | inactive: -0.044 | inactive: 0.006 | inactive: 0.048 | inactive: -0.066 | inactive: -0.027 | inactive: 0.009 | inactive: -0.032 | inactive: -0.012 | inactive: -0.075 | inactive: 0.016 | inactive: 0.024 | inactive: -0.002 | inactive: 0.001 | inactive: 0.016 | inactive: 0.023 | inactive: -0.035 | inactive: -0.038
OCRL (UniProt Q01968) | inactive: 0.008 | inactive: -0.029 | inactive: -0.047 | inactive: -0.029 | inactive: -0.013 | inactive: -0.009 | inactive: 0 | inactive: 0.033 | inactive: 0.001 | inactive: 0.047 | inactive: -0.095 | inactive: 0.083 | inactive: -0.044 | inactive: -0.051 | inactive: 0.053 | inactive: -0.089 | inactive: 0.048 | inactive: -0.018 | inactive: -0.012 | inactive: 0.024

Individual results from the entries so far.
Value for OXSM (UniProt Q9NWU1) under log2 fold change [7]: inactive: -0.035
Value for OSBPL2 (UniProt Q9H1P3) under log2 fold change (quisinostat): inactive: 0.028
